# Test results from PubChem BioAssay AID1347147 (National Center for Advancing Translational Sciences (NCATS), 2019).
# Sequences of proteins named here, by UniProt entry; tags and fusion partners are left off. A change or cut given only in a name is not applied to a line headed by its entry.
# UniProt Q9BV86: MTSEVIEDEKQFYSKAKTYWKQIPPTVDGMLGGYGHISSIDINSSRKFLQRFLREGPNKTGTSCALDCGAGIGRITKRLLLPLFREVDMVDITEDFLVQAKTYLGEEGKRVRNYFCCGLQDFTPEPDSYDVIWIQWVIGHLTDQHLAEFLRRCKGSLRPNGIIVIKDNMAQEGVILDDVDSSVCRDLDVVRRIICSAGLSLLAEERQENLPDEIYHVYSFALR
# Inconclusive results, whose numbers are uncertain, are shown with a selection of clear calls. Potencies beside an inconclusive call are fits to weak or partial responses and may not hold up. The source made the active and inactive calls. The call rests on the fitted dose curve; in most records, active means well fitted inhibition curve with a large enough effect; inconclusive means small, poorly fitted or top-dose-only effect; inactive means no such curve, though single readings can be large or run the other way.
# Molecular target: N-terminal Xaa-Pro-Lys N-methyltransferase 1 (Homo sapiens) (UniProt Q9BV86)
# Experiment: qHTS Assay for Inhibitors of N-terminal methyltransferase 1 (NTMT1): MTaseGlo Confirmatory Screen, Round 2
# Details: NTMT1 enzyme, MTase-Glo SAH luminescence; series mostly up to 57.4 µM; activity change, negative = inhibition: at the top concentration
# Text: Assay Submitter (PI): Rong Huang Ph.D, Purdue University, West Lafayette, IN 47907
# The N-terminal methytransferase 1 is the first methyltransferase that methylates protein alpha-N-amines and plays an important role in regulating cell mitosis, chromatin interactions and DNA repair. It is observed to be over-expressed in various cancer patient tissues like malignant melanoma and colorectal cancer tissues. Knockdown of NTMT1 in cancer cells causes cell mitotic defects and enhances sensitivity to DNA damaging chemotherapeutics. […] These critical cellular processes in which NTMT1 is implicated, coupled with emerging links to cellular dysfunction, strengthen the inference that NTMT1 is a compelling novel anticancer target. Progress have been made in understanding the molecular properties of NTMT1 and the biological consequences of protein alpha-N-terminal methylation, but there are no specific small molecule probes available for NTMT1 to fully characterize its MTase activity. To address this unmet need, a panel of assay is created and established to enable quantitative high-throughput screening (qHTS) for novel, potent, and selective small molecule NTMT1 inhibitors. Two orthogonal qHTS that use different reagents (ThioGlo vs. MTaseGlo) are developed for primary robotic screening against the NCATS chemical library of more than 400,000 small molecules. Identified inhibitors are reacquired, validated, and further characterized.
# MTaseGlo Assay is a luminescence screen that measure the activity of methyltransferases based on the reaction product S-adenosyl homocysteine (SAH). The substrate SAM is converted to SAH upon enzyme activation. MTase-Glo reagent and detection solution convert SAH to ATP and measure the light from the luciferase reaction.
# Early Translation Branch (ETB)
# National Center for Advancing Translational Sciences (NCATS)
# National Institute of Health (NIH)
# NTMT1 enzyme, substrate SPKRIA, control peptide RCC1-6 is provided by the Huang laboratory.
# In brief, 3 µL of enzyme mixture (final concentrations of 125 nM and 100 µM for NTMT1 and SAM, respectively) into all wells of a 1,536-well solid-bottom white plate (Greiner Bio One, Monroe, NC). 23 nL of DMSO or Ac-RCC1-10 (final concentration range 234 nM to 143 microM) was transferred via Wako Pin-tool (Wako Automation, Richmond, VA) and incubated (RT) for ~15 minutes. Next, 1 µL of substrate (final concentration 1 µM) or buffer was dispensed, and the reaction proceeded for 30 minutes (RT, protected from light) followed by a 1 microL addition of [5X] MTase-Glo Reagent(R). Samples were incubated (RT, protected from light) for 30 minutes to allow for SAH to be converted to ADP, followed by a 5 microL addition of [1X] MTase-Glo Detection Solution(R) to allow for ADP to be converted to ATP, which was then detected with a luciferase reaction. Samples were centrifuged for 15 seconds at 1,000 RPM's, followed by a RT incubation for 30 minutes. Plates were then read using Luminescence optics on a ViewLux detector. Data were normalized to no-enzyme (0% activity) and no-inhibitor (DMSO; 100%) controls, and the resulting percent inhibition data were fitted to a 4-parameter Hill equation using Graphpad Prism.
# Potency means the concentration at half of the fitted maximal effect.
Structure (SMILES),Potency,"activity change, negative = inhibition"
CCn1cnc2c(Nc3cccc(Cl)c3)nc(N[C@@H]3CCCC[C@@H]3N)nc21,active: 11.2 µM,
[Cl-].[Cl][Pt].[NH2-].[NH2-].c1ccncc1,"inconclusive: 14.1 µM [inhibitor, partial curve]",
CN(N=O)c1ccc(O)c(O)c1,"inconclusive: 15.8 µM [inhibitor, full curve]",
NC(=O)CI,active: 8.91 µM,
Clc1ccc(N2CC3CCC(C2)N3)nn1,,inactive: -3.62%
COC[C@H]1OC(=O)c2coc3c2[C@@]1(C)C1=C(C3=O)C2CCC(=O)[C@@]2(C)C[C@H]1OC(C)=O (some centres undefined),,inactive: -18.3%
O=S1(=O)N(CCN2CC=C(c3c[nH]c4cc(F)ccc34)CC2)c2cccc3c2N1CCC3,,inactive: -14.3%
CC(C)(C)c1cc(C=C(C#N)C#N)cc(C(C)(C)C)c1O,"inconclusive: 35.5 µM [inhibitor, partial curve]",
Cc1c2ccncc2c(C)c2c1[nH]c1ccccc12,"inconclusive: 15.8 µM [inhibitor, full curve, poor fit]",
N#C/C(=C/c1ccc(O)c(O)c1)C(N)=S,,inactive: -6.19%
NC(N)=Nc1ccc2[nH]c3c(c2c1)C[C@@]1(O)[C@H]2Cc4ccc(O)c5c4[C@@]1(CCN2CC1CC1)[C@H]3O5,active: 25.1 µM,
NC(Cc1cc(O)c(O)cc1O)C(=O)O (centres undefined),active: 15.8 µM,
C[N+]1(C)C2CCC1CC(OC(=O)c1c[nH]c3ccccc13)C2 (centres undefined),"inconclusive: 4.47 µM [inhibitor, full curve]",
Ic1ccccc1CNC1C2CCN(CC2)C1C(c1ccccc1)c1ccccc1 (centres undefined),"inconclusive: 31.6 µM [inhibitor, partial curve]",
c1ccc2c(c1)[I+]c1ccccc1-2,"inconclusive: 35.5 µM [inhibitor, partial curve]",
C[N+]1(C)CCN(c2ccccc2)CC1,"inconclusive: 2 µM [inhibitor, full curve]",
CN[C@@H]1C[C@@H](c2ccc(Cl)c(Cl)c2)c2ccccc21,"inconclusive: 25.1 µM [inhibitor, partial curve]",
C[N+](C)(C)CC#CCN1CCCC1=O,"inconclusive: 5.01 µM [inhibitor, full curve]",
NC1CCc2cc(O)c(O)cc2C1 (centres undefined),"inconclusive: 35.5 µM [inhibitor, partial curve]",

# A second format for some results above:
Structure (SMILES) | Potency | activity change, negative = inhibition
NC(Cc1cc(O)c(O)cc1O)C(=O)O (centres undefined) | active: 15.8 µM | 
NC1CCc2cc(O)c(O)cc2C1 (centres undefined) | inconclusive: 35.5 µM [inhibitor, partial curve] | 
